Reference: patent publication EP1187837B1, “THIAZEPINE INHIBITORS OF HIV-1 INTEGRASE” (THE UNITED STATES GOVERNMENT as represented by THE …, priority 1999, dated 2000)
At least one read-out could not be matched to a standard name with certainty.

System: HIV-1 infected CEM cells
Test: Anti-HIV assay in cultured CEM cells (NCI Antiviral Drug Screen, XTT formazan)
Format: cell-based
Details: 6 days

For O=C1Sc2cc3ccccc3cc2C(=O)N2CSCC12 (racemic) [Compound 20, (±)-1,13a-Dihydro-3H,5H,11H-naphto[2,3-f]thiazolo[4,3-c][1,4] thiazepine-5,13-dione], the “Cell data (µM) EC60: 50% effective concentration” value was 280 µM.
